Data published in patent US8889408B2, “Factor taking part in transcription control” (Sony Corporation, priority 2002, dated 2014).
Results are given in words; binding and its absence hold for the method and conditions named. Binding seen in cells or lysates may run through a third protein. Some binding calls cover weakened binding; strength is not graded here. Sequences can lack the tags named with a protein.

By UniProt entry, the sequences of proteins in these tests, tags left out.
UniProt O15379: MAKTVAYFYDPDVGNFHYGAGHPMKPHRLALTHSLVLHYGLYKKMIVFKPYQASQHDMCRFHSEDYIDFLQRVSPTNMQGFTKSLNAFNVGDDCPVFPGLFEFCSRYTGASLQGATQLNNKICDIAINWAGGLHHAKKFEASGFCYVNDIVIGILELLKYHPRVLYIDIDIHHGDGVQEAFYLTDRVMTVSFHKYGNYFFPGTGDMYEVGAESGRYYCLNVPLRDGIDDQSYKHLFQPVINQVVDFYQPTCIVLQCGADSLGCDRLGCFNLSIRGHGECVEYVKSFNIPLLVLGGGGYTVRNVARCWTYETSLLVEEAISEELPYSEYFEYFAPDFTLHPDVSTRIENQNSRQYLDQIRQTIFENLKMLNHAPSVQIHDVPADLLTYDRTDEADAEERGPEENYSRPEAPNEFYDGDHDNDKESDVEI
UniProt Q9UBN7: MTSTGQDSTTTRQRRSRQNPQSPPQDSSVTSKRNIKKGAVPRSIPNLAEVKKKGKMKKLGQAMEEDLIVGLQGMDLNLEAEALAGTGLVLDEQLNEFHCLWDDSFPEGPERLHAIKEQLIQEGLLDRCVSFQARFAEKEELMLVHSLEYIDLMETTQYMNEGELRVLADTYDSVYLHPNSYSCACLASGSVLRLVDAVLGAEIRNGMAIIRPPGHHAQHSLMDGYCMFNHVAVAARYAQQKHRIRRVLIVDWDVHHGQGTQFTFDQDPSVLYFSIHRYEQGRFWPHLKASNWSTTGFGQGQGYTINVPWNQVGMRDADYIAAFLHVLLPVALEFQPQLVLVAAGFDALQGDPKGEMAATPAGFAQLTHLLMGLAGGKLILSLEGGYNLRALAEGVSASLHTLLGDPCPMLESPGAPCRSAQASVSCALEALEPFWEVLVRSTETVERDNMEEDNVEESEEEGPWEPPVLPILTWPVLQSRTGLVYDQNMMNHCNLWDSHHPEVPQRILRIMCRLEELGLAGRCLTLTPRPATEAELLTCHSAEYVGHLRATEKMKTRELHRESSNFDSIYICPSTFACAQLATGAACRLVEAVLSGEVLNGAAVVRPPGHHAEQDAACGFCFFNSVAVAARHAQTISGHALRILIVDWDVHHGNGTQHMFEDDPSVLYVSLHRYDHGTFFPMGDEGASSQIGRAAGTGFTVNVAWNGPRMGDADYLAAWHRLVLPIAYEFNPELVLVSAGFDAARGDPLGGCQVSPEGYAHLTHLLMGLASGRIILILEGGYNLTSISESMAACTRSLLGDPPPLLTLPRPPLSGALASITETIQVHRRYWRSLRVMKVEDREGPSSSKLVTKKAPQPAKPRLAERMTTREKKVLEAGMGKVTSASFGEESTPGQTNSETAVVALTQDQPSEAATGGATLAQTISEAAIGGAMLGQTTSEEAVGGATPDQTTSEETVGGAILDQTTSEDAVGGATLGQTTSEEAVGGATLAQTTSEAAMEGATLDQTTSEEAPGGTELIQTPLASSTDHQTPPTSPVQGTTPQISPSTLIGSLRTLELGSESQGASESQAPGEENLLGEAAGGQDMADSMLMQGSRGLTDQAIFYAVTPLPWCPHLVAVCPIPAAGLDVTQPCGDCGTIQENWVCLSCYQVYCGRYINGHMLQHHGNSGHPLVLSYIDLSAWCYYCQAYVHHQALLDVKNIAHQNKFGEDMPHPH
UniProt P56524: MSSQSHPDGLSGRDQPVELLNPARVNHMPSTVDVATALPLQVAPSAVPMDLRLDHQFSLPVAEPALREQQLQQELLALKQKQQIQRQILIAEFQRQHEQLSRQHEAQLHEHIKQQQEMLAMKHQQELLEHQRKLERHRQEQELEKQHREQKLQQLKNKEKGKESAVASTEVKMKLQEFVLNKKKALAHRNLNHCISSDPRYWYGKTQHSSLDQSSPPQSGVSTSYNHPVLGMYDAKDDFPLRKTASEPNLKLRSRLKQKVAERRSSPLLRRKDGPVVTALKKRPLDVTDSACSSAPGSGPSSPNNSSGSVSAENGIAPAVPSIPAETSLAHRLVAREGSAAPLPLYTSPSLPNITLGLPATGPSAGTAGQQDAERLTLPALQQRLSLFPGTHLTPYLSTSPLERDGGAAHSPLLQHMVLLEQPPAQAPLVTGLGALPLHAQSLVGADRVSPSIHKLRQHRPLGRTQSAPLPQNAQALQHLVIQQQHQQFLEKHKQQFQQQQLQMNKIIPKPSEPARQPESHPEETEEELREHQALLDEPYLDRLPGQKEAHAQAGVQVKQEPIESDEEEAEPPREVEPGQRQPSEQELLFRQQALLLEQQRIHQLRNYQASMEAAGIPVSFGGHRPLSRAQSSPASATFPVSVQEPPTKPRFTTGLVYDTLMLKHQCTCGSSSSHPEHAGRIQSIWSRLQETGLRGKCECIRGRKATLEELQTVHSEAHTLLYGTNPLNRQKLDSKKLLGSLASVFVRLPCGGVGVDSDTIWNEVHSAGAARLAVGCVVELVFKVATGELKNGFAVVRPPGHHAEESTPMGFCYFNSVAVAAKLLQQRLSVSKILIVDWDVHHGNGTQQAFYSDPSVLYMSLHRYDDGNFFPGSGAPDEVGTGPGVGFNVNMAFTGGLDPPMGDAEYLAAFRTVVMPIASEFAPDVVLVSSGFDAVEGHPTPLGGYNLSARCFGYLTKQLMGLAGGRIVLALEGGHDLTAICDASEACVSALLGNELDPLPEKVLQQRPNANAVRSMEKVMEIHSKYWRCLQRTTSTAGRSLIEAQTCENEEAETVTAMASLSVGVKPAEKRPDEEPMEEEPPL
UniProt Q13547: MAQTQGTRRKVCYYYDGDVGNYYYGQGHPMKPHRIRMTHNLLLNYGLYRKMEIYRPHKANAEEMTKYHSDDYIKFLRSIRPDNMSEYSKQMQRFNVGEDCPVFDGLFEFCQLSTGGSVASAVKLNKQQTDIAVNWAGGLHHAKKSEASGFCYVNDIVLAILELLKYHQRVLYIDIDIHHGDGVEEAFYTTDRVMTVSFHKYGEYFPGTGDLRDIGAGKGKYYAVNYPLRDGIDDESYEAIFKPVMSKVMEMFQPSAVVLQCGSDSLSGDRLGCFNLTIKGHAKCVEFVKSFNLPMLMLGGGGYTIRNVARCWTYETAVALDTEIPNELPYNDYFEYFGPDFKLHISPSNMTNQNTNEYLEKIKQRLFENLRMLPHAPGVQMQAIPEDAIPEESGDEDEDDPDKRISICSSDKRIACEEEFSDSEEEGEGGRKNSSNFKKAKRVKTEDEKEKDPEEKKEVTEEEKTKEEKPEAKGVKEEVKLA

Legend:
Flag-HDAC3 [1] = target: Flag-HDAC3 (UniProt O15379); experiment: co-immunoprecipitation from 293 cells, anti-FLAG IP (figure legend, lane 3)
Flag-HDAC6 [2] = target: Flag-HDAC6 (UniProt Q9UBN7); experiment: co-immunoprecipitation from 293 cells, anti-FLAG IP (figure legend, lane 5)
Flag-HDAC3 [3] = target: Flag-HDAC3 (UniProt O15379); experiment: co-immunoprecipitation from 293 cells, anti-Flag IP, anti-GFP immunoblot (lane 3)
Flag-HDAC4 [4] = target: Flag-HDAC4 (UniProt P56524); experiment: co-immunoprecipitation from 293 cells, anti-FLAG IP (figure legend, lane 4)
Flag-HDAC4 [5] = target: Flag-HDAC4 (UniProt P56524); experiment: co-immunoprecipitation from 293 cells, anti-Flag IP, anti-GFP immunoblot (lane 4)
Flag-HDAC1 [6] = target: Flag-HDAC1 (UniProt Q13547); experiment: co-immunoprecipitation from 293 cells, anti-Flag IP, anti-GFP immunoblot (lane 1)
Flag-HDAC6 [7] = target: Flag-HDAC6 (UniProt Q9UBN7); experiment: co-immunoprecipitation from 293 cells, anti-Flag IP, anti-GFP immunoblot (lane 5)
Flag-HDAC1 [8] = target: Flag-HDAC1 (UniProt Q13547); experiment: co-immunoprecipitation from 293 cells, anti-FLAG IP (figure legend, lane 1)
Flag-Skip fused protein [9] = target: T1, Flag-Skip fused protein (UniProt Q13573); experiment: co-immunoprecipitation from HEK293 cells, anti-Flag IP, anti-GFP immunoblot
T1 sequence (looked up): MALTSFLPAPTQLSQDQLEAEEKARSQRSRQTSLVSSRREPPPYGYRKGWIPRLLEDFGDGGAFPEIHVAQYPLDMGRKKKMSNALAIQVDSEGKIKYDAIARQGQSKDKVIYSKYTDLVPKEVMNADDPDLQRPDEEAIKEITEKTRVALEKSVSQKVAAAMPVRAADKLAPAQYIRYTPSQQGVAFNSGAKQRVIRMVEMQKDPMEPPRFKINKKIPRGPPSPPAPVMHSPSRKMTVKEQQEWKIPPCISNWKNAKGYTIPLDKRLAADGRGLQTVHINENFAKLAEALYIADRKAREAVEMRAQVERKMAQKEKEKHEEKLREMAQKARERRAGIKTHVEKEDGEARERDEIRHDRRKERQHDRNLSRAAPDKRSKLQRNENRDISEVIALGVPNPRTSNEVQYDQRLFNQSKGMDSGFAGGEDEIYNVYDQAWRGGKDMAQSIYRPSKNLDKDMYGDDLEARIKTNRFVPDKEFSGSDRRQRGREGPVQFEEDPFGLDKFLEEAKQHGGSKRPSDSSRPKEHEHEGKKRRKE

[10] = target: HDAC1 (GST pulldown, data not shown) (UniProt Q13547); experiment: GST pulldown (data not shown)
[11] = target: in vitro translated HDAC3 (UniProt O15379); experiment: GST pulldown (figure legend)
[12] = target: in vitro translated HDAC3 (UniProt O15379); experiment: GST pulldown of ^35S-labelled in vitro translated HDAC3, autoradiography
Flag-Skip fused protein [13] = target: T1, Flag-Skip fused protein; experiment: co-immunoprecipitation from 293 cells, anti-Flag IP, anti-GFP immunoblot
Flag-Skip fused protein [14] = target: T1, Flag-Skip fused protein; experiment: co-immunoprecipitation from 293 cells, anti-Flag IP, anti-HDART immunoblot

Measured: binding

B1: GFP-HDART fused protein (protein, not shown: large carriers; small tags and cut ends)
chain: MVVMARLSRPERPDLVFEEEDLPYEEEIMRNQFSVKCWLRYIEFKQGAPKPRLNQLYERALKLLPCSYKLWYRYLKARRAQVKHRCVTDPAYEDVNNCHERAFVFMHKMPRLWLDYCQFLMDQGRVTHTRRTFDRALRALPITQHSRIWPLYLRFLRSHPLPETAVRGYRRFLKLSPESAEEYIEYLKSSDRLDEAAQRLATVVNDERFVSKAGKSNYQLWHELCDLISQNPDKVQSLNVDAIIRGGLTRFTDQLGKLWCSLADYYIRSGHFEKARDVYEEAIRTVMTVRDFTQVFDSYAQFEESMIAAKMETASELGREEEDDVDLELRLARFEQLISRRPLLLNSVLLRQNPHHVHEWHKRVALHQGRPREIINTYTEAVQTVDPFKATGKPHTLWVAFAKFYEDNGQLDDARVILEKATKVNFKQVDDLASVWCQCGELELRHENYDEALRLLRKATALPARRAEYFDGSEPVQNRVYKSLKVWSMLADLEESLGTFQSTKAVYDRILDLRIATPQIVINYAMFLEEHKYFEESFKAYERGISLFKWPNVSDIWSTYLTKFIARYGGRKLERARDLFEQALDGCPPKYAKTLYLLYAQLEEEWGLARHAMAVYERATRAVEPAQQYDMFNIYIKRAAEIYGVTHTRGIYQKAIEVLSDEHAREMCLRFADMECKLGEIDRARAIYSFCSQICDPRTTGAFWQTWKDFEVRHGNEDTIKEMLRIRRSVQATYNTQVNFMASQMLKVSGSATGTVSDLAPGQSGMDDMKLLEQRAEQLAAEAERDQPLRAQSKILFVRSDASREELAELAQQVNPEEIQLGEDEDEDEMDLEPNEVRLEQQSVPAAVFGSLKED
not listed: [10] | [11] | [12] | Flag-Skip fused protein [13] | Flag-Skip fused protein [14]
binds: all other assays above

B2: GST-HDART fused protein (protein, not shown: a dimerising Fc or GST)
chain: MVVMARLSRPERPDLVFEEEDLPYEEEIMRNQFSVKCWLRYIEFKQGAPKPRLNQLYERALKLLPCSYKLWYRYLKARRAQVKHRCVTDPAYEDVNNCHERAFVFMHKMPRLWLDYCQFLMDQGRVTHTRRTFDRALRALPITQHSRIWPLYLRFLRSHPLPETAVRGYRRFLKLSPESAEEYIEYLKSSDRLDEAAQRLATVVNDERFVSKAGKSNYQLWHELCDLISQNPDKVQSLNVDAIIRGGLTRFTDQLGKLWCSLADYYIRSGHFEKARDVYEEAIRTVMTVRDFTQVFDSYAQFEESMIAAKMETASELGREEEDDVDLELRLARFEQLISRRPLLLNSVLLRQNPHHVHEWHKRVALHQGRPREIINTYTEAVQTVDPFKATGKPHTLWVAFAKFYEDNGQLDDARVILEKATKVNFKQVDDLASVWCQCGELELRHENYDEALRLLRKATALPARRAEYFDGSEPVQNRVYKSLKVWSMLADLEESLGTFQSTKAVYDRILDLRIATPQIVINYAMFLEEHKYFEESFKAYERGISLFKWPNVSDIWSTYLTKFIARYGGRKLERARDLFEQALDGCPPKYAKTLYLLYAQLEEEWGLARHAMAVYERATRAVEPAQQYDMFNIYIKRAAEIYGVTHTRGIYQKAIEVLSDEHAREMCLRFADMECKLGEIDRARAIYSFCSQICDPRTTGAFWQTWKDFEVRHGNEDTIKEMLRIRRSVQATYNTQVNFMASQMLKVSGSATGTVSDLAPGQSGMDDMKLLEQRAEQLAAEAERDQPLRAQSKILFVRSDASREELAELAQQVNPEEIQLGEDEDEDEMDLEPNEVRLEQQSVPAAVFGSLKED
binds: [10] | [11] | [12]

B3: GFP-N4TPR (N4TPR tagged with GFP) (protein, not shown: large carriers; small tags and cut ends)
chain: MVVMARLSRPERPDLVFEEEDLPYEEEIMRNQFSVKCWLRYIEFKQGAPKPRLNQLYERALKLLPCSYKLWYRYLKARRAQVKHRCVTDPAYEDVNNCHERAFVFMHKMPRLWLDYCQFLMDQGRVTHTRRTFDRALRALPITQHSRIWPLYLRFLRSHPLPETAVRGYRRFLKLSPES
binds: Flag-Skip fused protein [13]

B4: endogenous HDART protein (protein)
chain: MVVMARLSRPERPDLVFEEEDLPYEEEIMRNQFSVKCWLRYIEFKQGAPKPRLNQLYERALKLLPCSYKLWYRYLKARRAQVKHRCVTDPAYEDVNNCHERAFVFMHKMPRLWLDYCQFLMDQGRVTHTRRTFDRALRALPITQHSRIWPLYLRFLRSHPLPETAVRGYRRFLKLSPESAEEYIEYLKSSDRLDEAAQRLATVVNDERFVSKAGKSNYQLWHELCDLISQNPDKVQSLNVDAIIRGGLTRFTDQLGKLWCSLADYYIRSGHFEKARDVYEEAIRTVMTVRDFTQVFDSYAQFEESMIAAKMETASELGREEEDDVDLELRLARFEQLISRRPLLLNSVLLRQNPHHVHEWHKRVALHQGRPREIINTYTEAVQTVDPFKATGKPHTLWVAFAKFYEDNGQLDDARVILEKATKVNFKQVDDLASVWCQCGELELRHENYDEALRLLRKATALPARRAEYFDGSEPVQNRVYKSLKVWSMLADLEESLGTFQSTKAVYDRILDLRIATPQIVINYAMFLEEHKYFEESFKAYERGISLFKWPNVSDIWSTYLTKFIARYGGRKLERARDLFEQALDGCPPKYAKTLYLLYAQLEEEWGLARHAMAVYERATRAVEPAQQYDMFNIYIKRAAEIYGVTHTRGIYQKAIEVLSDEHAREMCLRFADMECKLGEIDRARAIYSFCSQICDPRTTGAFWQTWKDFEVRHGNEDTIKEMLRIRRSVQATYNTQVNFMASQMLKVSGSATGTVSDLAPGQSGMDDMKLLEQRAEQLAAEAERDQPLRAQSKILFVRSDASREELAELAQQVNPEEIQLGEDEDEDEMDLEPNEVRLEQQSVPAAVFGSLKED
binds: Flag-Skip fused protein [14]
